Assay [1] concerns the target WRKY10 (split-luciferase fusion, vector JW772) (Arabidopsis thaliana) (UniProt Q9LG05). Put plainly: split reporter; split-luciferase; CLuc and NLuc fusions co-injected by Agrobacterium into N. benthamiana leaf epidermal cells; luminescence imaged 1.5-2 days later with 1 mM luciferin.
Assay [2] concerns the target C-terminal 368-485 peptide of WRKY10 (split-luciferase fusion) (Arabidopsis thaliana) (UniProt Q9LG05). The assay is described as above.
For assay [3], the target named is WRKY10-YFP (Arabidopsis thaliana) (UniProt Q9LG05). Put plainly: co-IP; co-expression in N. benthamiana leaves for 40-48 h; lysis buffer 50 mM Tris-HCl pH 7.5, 150 mM NaCl, 2 M urea, 0.1% NP-40; anti-GFP agarose (GFP-Trap), 4 °C, 2 h; blots with anti-GFP and anti-Flag.

The chains behind the UniProt entries cited, without tags or fusion partners. Where a name states a change or a piece, a line headed by the entry shows the natural chain unless it says otherwise. Residues count along the entry.
UniProt Q9LG05: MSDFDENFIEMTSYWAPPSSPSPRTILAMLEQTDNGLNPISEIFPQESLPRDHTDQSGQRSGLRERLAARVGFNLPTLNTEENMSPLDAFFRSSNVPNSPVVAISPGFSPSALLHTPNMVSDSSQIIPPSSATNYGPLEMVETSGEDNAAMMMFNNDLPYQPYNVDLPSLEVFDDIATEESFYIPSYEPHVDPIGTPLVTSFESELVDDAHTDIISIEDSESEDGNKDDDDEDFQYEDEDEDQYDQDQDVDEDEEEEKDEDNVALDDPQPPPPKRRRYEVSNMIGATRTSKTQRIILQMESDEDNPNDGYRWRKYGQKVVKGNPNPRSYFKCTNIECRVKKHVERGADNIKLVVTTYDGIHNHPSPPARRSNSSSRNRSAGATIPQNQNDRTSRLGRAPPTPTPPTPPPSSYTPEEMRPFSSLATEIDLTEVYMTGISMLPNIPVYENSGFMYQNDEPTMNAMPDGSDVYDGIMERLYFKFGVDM
C-terminal 368-485 peptide of WRKY10 (split-luciferase fusion): residues 368-485 of Q9LG05
UniProt Q9M1Z5: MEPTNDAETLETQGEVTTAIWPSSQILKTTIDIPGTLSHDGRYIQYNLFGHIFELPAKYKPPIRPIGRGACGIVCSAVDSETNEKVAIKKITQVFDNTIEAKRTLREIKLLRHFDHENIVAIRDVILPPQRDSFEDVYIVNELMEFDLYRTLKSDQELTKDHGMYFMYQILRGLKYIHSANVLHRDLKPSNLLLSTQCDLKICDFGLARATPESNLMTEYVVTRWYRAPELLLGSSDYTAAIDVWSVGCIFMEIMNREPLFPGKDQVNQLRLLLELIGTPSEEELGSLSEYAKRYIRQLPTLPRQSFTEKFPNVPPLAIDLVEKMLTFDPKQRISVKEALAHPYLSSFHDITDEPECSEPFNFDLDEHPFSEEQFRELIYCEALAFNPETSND

Data on 2 substances can be found in publication PMC8062763.

These are yes or no findings as the source states them, for the method shown. Binding seen in cells or lysates may run through a third protein. Some binding calls cover weakened binding; strength is not graded here.

For “MPK10 (split-luciferase fusion, vector JW771) (from UniProt Q9M1Z5 1-393) (enzyme)”, the binding result in assay [1] and in assay [2] was “binds” each time. For “MPK10-Flag (from UniProt Q9M1Z5 1-393) (enzyme)”, in assay [3], the binding entry is reported as “binds”.
